The text below walks through data of PMC13086964, “USP7 deubiquitinase stabilizes FAN1 to support DNA crosslink repair and suppress CAG repeat expansion” (Nature Communications, 2026).

Sequences of proteins named here, by UniProt entry; tags and fusion partners are left off.
UniProt Q9Y2M0: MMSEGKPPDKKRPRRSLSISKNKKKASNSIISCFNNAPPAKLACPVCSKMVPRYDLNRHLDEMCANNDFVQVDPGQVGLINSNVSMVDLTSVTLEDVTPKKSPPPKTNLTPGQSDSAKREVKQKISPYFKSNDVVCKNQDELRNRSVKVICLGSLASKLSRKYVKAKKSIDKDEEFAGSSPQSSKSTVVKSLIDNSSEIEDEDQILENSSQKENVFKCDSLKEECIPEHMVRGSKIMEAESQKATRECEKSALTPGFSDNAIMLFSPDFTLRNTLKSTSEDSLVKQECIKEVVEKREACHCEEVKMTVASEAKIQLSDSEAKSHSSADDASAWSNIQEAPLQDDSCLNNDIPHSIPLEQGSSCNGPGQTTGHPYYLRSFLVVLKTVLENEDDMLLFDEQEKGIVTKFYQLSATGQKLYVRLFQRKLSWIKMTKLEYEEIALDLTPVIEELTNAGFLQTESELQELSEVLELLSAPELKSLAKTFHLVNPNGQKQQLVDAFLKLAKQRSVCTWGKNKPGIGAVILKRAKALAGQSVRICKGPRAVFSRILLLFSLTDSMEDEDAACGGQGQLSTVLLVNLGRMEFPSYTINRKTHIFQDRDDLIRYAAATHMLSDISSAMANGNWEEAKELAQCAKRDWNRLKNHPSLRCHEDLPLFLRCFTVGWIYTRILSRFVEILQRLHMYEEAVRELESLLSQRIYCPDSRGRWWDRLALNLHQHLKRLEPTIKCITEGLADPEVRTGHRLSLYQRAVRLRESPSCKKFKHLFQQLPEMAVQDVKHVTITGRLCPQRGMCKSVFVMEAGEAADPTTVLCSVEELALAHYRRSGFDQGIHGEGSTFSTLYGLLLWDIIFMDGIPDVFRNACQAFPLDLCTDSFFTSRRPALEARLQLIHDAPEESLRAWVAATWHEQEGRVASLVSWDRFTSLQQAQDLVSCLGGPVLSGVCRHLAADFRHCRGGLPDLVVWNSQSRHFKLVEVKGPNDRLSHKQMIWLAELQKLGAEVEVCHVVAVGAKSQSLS
UniProt Q93009: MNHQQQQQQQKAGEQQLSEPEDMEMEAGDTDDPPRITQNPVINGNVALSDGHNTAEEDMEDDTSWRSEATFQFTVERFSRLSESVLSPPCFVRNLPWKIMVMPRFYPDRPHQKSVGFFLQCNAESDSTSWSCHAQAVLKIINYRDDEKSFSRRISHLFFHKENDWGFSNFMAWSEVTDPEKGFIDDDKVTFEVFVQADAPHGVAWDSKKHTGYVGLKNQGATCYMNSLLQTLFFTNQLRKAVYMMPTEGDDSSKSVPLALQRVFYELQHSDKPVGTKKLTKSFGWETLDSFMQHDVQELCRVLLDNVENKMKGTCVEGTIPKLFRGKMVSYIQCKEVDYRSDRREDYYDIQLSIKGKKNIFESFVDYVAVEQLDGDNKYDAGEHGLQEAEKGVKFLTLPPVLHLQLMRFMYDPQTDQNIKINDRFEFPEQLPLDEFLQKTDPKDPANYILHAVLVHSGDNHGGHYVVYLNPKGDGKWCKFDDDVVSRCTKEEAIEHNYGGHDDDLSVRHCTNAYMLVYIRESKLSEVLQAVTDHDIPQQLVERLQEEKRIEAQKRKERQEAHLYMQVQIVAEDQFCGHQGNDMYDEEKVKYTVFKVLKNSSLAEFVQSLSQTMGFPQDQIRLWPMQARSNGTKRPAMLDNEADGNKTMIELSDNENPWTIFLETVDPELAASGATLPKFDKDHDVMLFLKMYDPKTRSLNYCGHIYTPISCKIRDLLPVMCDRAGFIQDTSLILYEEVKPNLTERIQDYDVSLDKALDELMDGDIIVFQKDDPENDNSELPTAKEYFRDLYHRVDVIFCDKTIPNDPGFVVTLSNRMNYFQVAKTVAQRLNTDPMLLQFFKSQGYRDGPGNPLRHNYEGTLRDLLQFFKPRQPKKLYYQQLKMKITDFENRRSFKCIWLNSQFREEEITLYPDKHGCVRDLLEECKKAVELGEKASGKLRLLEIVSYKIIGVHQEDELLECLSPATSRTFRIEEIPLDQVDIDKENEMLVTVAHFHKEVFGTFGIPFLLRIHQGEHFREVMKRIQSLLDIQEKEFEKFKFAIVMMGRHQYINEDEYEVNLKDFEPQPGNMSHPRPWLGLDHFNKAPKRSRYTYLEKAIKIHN
UniProt Q9NVI1: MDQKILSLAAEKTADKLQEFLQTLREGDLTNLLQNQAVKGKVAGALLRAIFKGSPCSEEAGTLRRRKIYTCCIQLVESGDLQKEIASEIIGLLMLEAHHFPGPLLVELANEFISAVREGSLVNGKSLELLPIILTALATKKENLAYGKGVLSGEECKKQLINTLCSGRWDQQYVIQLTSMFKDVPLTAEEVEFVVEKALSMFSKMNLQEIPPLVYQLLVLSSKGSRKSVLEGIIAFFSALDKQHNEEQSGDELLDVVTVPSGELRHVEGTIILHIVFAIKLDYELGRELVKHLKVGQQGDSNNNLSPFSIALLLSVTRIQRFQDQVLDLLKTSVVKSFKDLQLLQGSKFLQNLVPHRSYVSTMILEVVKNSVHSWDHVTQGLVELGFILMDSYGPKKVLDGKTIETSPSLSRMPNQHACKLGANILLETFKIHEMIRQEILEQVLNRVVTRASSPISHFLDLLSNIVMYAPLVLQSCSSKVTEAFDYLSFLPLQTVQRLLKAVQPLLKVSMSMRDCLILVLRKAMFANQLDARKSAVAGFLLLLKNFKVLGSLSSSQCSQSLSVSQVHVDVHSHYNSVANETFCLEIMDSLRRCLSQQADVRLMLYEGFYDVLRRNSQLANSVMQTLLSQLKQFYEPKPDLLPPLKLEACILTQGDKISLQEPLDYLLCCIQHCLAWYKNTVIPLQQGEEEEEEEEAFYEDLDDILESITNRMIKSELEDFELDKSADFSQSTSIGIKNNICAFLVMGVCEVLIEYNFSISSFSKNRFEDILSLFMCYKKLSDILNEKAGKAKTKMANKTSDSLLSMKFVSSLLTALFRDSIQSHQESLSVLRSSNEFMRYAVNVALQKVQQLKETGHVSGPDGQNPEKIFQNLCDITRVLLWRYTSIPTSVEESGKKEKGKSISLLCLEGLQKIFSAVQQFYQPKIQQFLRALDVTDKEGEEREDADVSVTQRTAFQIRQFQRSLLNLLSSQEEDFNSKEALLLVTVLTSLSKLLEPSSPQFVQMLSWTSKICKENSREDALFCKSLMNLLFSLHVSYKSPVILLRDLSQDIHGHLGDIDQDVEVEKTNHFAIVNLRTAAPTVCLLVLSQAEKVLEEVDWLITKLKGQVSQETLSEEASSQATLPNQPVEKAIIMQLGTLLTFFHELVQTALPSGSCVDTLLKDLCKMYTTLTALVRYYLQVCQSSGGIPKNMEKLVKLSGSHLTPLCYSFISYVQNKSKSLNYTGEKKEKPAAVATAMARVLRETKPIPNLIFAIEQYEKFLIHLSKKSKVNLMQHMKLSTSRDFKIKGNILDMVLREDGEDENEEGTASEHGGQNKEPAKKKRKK
UniProt Q93008: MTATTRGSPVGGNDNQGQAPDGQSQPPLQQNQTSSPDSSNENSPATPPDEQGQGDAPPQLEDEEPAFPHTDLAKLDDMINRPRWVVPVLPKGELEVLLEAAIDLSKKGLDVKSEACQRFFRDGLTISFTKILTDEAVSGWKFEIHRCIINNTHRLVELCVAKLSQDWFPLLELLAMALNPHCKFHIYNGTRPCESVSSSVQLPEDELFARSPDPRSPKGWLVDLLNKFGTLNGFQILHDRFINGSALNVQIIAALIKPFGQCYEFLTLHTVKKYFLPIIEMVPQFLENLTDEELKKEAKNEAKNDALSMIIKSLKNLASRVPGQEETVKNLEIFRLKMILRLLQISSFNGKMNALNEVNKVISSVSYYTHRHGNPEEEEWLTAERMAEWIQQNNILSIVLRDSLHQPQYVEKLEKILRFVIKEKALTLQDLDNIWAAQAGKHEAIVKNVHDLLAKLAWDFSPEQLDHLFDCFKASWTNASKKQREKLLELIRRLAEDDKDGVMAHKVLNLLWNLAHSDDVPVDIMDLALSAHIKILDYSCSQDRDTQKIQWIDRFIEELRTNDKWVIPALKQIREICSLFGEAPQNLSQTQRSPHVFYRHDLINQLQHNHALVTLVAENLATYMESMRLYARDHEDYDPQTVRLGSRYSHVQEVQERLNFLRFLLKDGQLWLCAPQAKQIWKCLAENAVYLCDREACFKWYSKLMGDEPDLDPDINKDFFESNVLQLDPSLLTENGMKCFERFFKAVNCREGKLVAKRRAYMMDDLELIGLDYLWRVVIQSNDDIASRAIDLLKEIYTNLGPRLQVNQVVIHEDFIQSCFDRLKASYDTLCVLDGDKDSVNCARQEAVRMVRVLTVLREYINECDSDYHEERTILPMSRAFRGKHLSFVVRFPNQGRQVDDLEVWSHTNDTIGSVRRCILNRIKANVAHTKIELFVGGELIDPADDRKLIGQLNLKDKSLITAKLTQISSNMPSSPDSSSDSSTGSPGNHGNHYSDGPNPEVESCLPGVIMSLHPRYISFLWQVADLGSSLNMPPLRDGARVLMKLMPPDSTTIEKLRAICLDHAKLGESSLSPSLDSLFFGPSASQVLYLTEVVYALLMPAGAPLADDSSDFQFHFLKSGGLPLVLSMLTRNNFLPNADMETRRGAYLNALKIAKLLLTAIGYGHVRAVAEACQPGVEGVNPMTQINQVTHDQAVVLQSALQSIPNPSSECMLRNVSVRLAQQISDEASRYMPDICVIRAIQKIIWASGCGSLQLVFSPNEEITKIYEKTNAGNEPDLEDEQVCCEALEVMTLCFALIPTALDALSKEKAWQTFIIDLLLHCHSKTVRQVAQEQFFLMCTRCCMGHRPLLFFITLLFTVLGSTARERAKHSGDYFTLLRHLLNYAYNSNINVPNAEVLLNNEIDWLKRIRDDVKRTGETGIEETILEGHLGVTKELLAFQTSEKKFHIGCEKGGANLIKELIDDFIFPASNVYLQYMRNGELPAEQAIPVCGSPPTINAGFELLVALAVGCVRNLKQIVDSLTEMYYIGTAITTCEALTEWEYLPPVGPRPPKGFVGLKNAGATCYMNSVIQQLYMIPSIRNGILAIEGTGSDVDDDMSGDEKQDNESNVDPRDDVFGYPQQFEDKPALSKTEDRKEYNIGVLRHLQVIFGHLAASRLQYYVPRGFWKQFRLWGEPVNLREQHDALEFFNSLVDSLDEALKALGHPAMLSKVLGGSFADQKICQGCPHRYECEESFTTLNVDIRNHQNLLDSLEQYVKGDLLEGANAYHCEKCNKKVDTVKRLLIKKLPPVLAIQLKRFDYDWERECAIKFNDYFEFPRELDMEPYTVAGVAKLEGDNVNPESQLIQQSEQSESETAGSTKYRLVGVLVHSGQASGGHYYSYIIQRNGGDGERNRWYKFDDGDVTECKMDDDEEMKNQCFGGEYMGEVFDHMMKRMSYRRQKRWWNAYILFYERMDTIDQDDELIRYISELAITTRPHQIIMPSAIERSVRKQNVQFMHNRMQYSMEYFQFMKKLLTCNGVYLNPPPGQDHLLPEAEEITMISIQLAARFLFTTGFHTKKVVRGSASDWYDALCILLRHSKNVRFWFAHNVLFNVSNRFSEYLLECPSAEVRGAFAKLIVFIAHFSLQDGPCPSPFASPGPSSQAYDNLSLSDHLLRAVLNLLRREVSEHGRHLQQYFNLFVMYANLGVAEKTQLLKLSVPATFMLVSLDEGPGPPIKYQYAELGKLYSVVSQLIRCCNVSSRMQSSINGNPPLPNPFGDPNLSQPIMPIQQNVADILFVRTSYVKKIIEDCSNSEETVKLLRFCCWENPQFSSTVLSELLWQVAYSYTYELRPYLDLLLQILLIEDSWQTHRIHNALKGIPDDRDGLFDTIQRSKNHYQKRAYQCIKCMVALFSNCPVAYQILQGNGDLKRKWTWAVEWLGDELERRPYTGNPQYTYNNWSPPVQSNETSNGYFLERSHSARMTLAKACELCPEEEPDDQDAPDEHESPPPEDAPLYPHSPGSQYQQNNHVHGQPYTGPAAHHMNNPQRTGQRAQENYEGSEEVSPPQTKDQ

No constants are given. Whether binding was seen depends on the method and setting. In cells and extracts the contact can be indirect. Here binding means that the protein was enriched with, or labelled near, the bait; the list need not be complete.

This experiment addresses GFP-FAN1 wild-type (wt), full-length (human) (UniProt Q9Y2M0). Put plainly: affinity purification with mass spectrometry; GFP-Trap agarose on nuclei-enriched, Benzonase-treated lysates of HEK293 Flp-In T-REx eGFP-FAN1 cells (parental HEK293 as control); IP buffer 50 mM Tris-HCl pH 7.5, 100 mM NaCl, 0.1% NP40; 1 h, 4 °C; LC-MS/MS, n = 3.
With “endogenous USP7 (HEK293 cells) (from UniProt Q93009 1-1102) (enzyme)”, the binding entry is on record as “binds”.
With FANCI (from UniProt Q9NVI1 1-1328) the entry was “binds”; with “endogenous USP9X (HEK293 cells) (from UniProt Q93008 1-2554) (enzyme)”, “binds”.
